Laboratory results taken from PMC12670160, “A drug-repurposing screen of FDA- and EMA-approved drugs identifies two NF-κB inhibitors active against eumycetoma” (Journal of Antimicrobial Chemotherapy, 2025).
Structures can show the parent of a compound that is named as a salt. Where two headings read alike, the source gives them in different places. In all, about 5,300 compounds went through this assay and about 130 (2.5%) showed an effect of 50% or more. The list shows a part of the results. Peptide text beside a SMILES is read from it.

Tested on: M. mycetomatis strain mm55
Details: primary screen, metabolic activity vs growth control, 96 h, 2 µM, inhibitor

SMILES	% viability (Madurella mycetomatis metabolic activity at 2µM (%))	% viability
O=C(O)CN(CCN(CC(=O)O)CC(=O)O)CCN(CC(=O)O)CC(=O)O [ONC0005602, pentetic acid]	107.7%	–
CCCN(CCc1cccs1)[C@H]1CCc2c(O)cccc2C1 [ONC0001836, rotigotine]	–	86.85%
Clc1ccc(COC(Cn2ccnc2)c2ccc(Cl)cc2Cl)c(Cl)c1 (centres unmarked) [Miconazole nitrate]	–	2.05%
CC(C)=CCC[C@](C)(O)[C@H]1CC[C@]2(C)[C@@H]1[C@H](O)C[C@@H]1[C@@]3(C)CC[C@H](O)C(C)(C)[C@@H]3[C@@H](O)C[C@]12C [ONC0002452, 20sprotopanaxatriol]	–	91.03%
NCCC(Oc1ccc(C(F)(F)F)cc1)c1ccccc1 (centres unmarked) [ONC0003187, norfluoxetine]	–	88.77%
Cc1cc(=O)n(-c2ccccc2)n1C [ONC0003254, antipyrine]	–	103.3%
O=C(NCCN1CCC(n2c(=O)[nH]c3ccccc32)CC1)c1cc2cc(F)ccc2[nH]1 [ONC0001720, fipi]	–	82.41%
CN(C)C(=N)NCCC[C@H](N)C(=O)O [ONC0002981, asymmetricaldimethylarginine]	–	83.92%
CC(C)[C@@H]1CC[C@@H](C)C[C@@H]1P(=O)(c1ccccc1)c1ccccc1 [ONC0003951, dpo1]	–	47.19%
OC[C@H]1O[C@@H](c2ccc(F)c(Cc3cc4ccccc4s3)c2)[C@H](O)[C@@H](O)[C@@H]1O [ONC0001793, ipragliflozin]	–	91.04%
CC1CCc2c(N3CCC(O)CC3)c(F)cc3c(=O)c(C(=O)O)cn1c23 (centres unmarked) [ONC0004121, nadifloxacin]	–	106.7%
CCCc1c(OCCCCc2nnn[nH]2)ccc(C(C)=O)c1O [ONC0003437, ly 171883]	–	65.16%
O=[N+]([O-])c1nccn1CC(O)CN1CCCCC1 (centres unmarked) [ONC0003868, pimonidazole]	–	83.71%
NCC(=O)O [ONC0001985, glycine]	–	104.5%
Cc1ccc(-c2ncc(Cl)cc2-c2ccc(S(C)(=O)=O)cc2)cn1 [ONC0000788, etoricoxib]	–	72.83%
C[N+](C)(C)CCCCCNCC12CC3CC(CC(C3)C1)C2 [ONC0003367, iem1460]	–	82.77%
O=C(O)CCCCCCCCCCCCCCc1ccc(I)cc1 [ONC0005552, omega4iodophenylpentadecanoic acid]	–	101.6%
CCCC(=O)N1CCCN(c2nc(N)c3cc(OC)c(OC)cc3n2)CC1 [ONC0002101, bunazosin hydrochloride]	–	74.17%
O=C1Cc2cc(CCN3CCN(c4nsc5ccccc45)CC3)c(Cl)cc2N1 [ONC0004893, ziprasidone hydrochloride]	–	115.4%
CC(C)/N=c1\cc2n(-c3ccc(Cl)cc3)c3ccccc3nc-2cc1Nc1ccc(Cl)cc1 [ONC0004010, clofazimine]	–	59.81%

SMILES	% viability (Madurella mycetomatis metabolic activity at 2µM (%))	% viability
N[C@@H]1CON=C1O [ONC0000314, cycloserine d]	–	88.4%
OC[C@H]1O[C@@H]2O[C@H]3[C@H](O)[C@@H](O)[C@@H](O[C@H]4[C@H](O)[C@@H](O)[C@@H](O[C@H]5[C@H](O)[C@@H](O)[C@@H](O[C@H]6[C@H](O)[C@@H](O)[C@@H](O[C@H]7[C@H](O)[C@@H](O)[C@@H](O[C@H]8[C@H](O)[C@@H](O)[C@@H](O[C@H]1[C@H](O)[C@H]2O)O[C@@H]8CO)O[C@@H]7CO)O[C@@H]6CO)O[C@@H]5CO)O[C@@H]4CO)O[C@@H]3CO [ONC0004137, betacyclodextrin]	–	76.26%
O=C1[C@@H](Cc2ccc(O)cc2)N2C(=O)CCN(C(=O)NCc3ccccc3)[C@H]2CN1Cc1cccc2ccccc12 [ONC0004352, icg001]	–	93.48%
CC(=O)N(O)CCCCCNC(=O)CCC(=O)N(O)CCCCCNC(=O)CCC(=O)N(O)CCCCCN [ONC0005619, deferoxaminemesylate]	–	86.71%
C[C@H]1O[C@@H](O[C@H]2[C@@H](O)C[C@H](O[C@H]3[C@@H](O)C[C@H](O[C@H]4CC[C@]5(C)C6C[C@@H](O)[C@]7(C)[C@@H](C8=CC(=O)OC8)CC[C@]7(O)C6CC[C@@H]5C4)O[C@@H]3C)O[C@@H]2C)C[C@H](O)[C@@H]1O (some centres unmarked) [ONC0000453, digoxin]	–	79.25%
N[C@H](CO)C(=O)O [ONC0001995, dserine]	–	67.69%
CCn1c(-c2nonc2N)nc2cncc(CNC3CCNCC3)c21 [ONC0000096, sb747651a]	–	75.74%
COc1ccc2nc3ccc(Cl)cc3c(SCCCN)c2c1 [ONC0004421, ldn209929]	–	119.6%
CN1CC(=O)NC1=N [ONC0002791, creatinine]	–	105.8%
O=C(Cc1ccc(-c2ccc(OCCN3CCOCC3)cc2)cn1)NCc1ccccc1 [ONC0005091, kx2391]	–	85.19%
CC(C)(C(=O)c1cccnc1)c1cccnc1 [ONC0005447, metyrapone]	–	124.1%
COC(=O)Nc1ccc(-c2nc(N3CCOCC3)c3cnn(C4CCN(Cc5cccnc5)CC4)c3n2)cc1 [ONC0001643, wye687]	–	107.7%
Nc1ncn([C@H]2C[C@H](O)[C@@H](CO)O2)c(=O)n1 [ONC0003115, decitabine]	–	79.17%
CC(C)(CC(=O)N1CCCC1)NCC(=O)N1C[C@@H](F)C[C@H]1C#N [ONC0001034, dbpr108]	–	85.05%
O=c1cc(-c2ccc(O)c(O)c2)oc2cc(O)cc(O)c12 [ONC0005074, luteolin]	–	90.55%
CCC(CC)O[C@@H]1C=C(C(=O)O)C[C@H](N)[C@H]1NC(C)=O [ONC0001288, oseltamivir acid]	–	79.28%
CCOc1cc(C(=O)N2CCC(N3CCN(C)CC3)CC2)ccc1Nc1ncc2c(n1)N(C1CCCC1)c1ccccc1C(=O)N2C [ONC0001309, xmd17109]	–	139.2%
O=C(NOCCO)c1ccc2cncn2c1Nc1ccc(I)cc1F [ONC0005172, gdc0623]	–	115.8%
CC(=O)Nc1ccc(NC(=S)NC(=O)c2ccc(C(C)(C)C)cc2)cc1 [ONC0005205, tenovin1]	–	158.2%
C[C@H](NC(=O)[C@@H](O)c1cc(F)cc(F)c1)C(=O)N[C@@H]1C(=O)N(C)c2ccccc2-c2ccccc21 [ONC0005268, ly411575]	–	105.9%

SMILES	% viability (Madurella mycetomatis metabolic activity at 2µM (%))	% viability
CCCC(=O)O [ONC0004805, sodium butyrate]	–	67.66%
CN1CCN(C2=Cc3ccccc3Oc3ccc(Cl)cc32)CC1 [ONC0004301, 2cmdo]	–	90.35%
C[C@]12CC[C@@H]3c4ccc(O)cc4CC[C@H]3[C@@H]1CC[C@@H]2OC(=O)CCC1CCCC1 [ONC0000738, estradiol cypionate]	–	84.11%
CC(O)CC(=O)O (centres unmarked) [ONC0003511, betahydroxybutyrate]	–	60.8%
CC(C)N(CCCNC(=O)Nc1ccc(C(C)(C)C)cc1)C[C@H]1O[C@@H](n2ccc3c(N)ncnc32)[C@H](O)[C@@H]1O [ONC0004328, epz004777]	–	126.4%
CN1CCc2cccc3c2[C@H]1Cc1ccc(O)c(O)c1-3 [ONC0005471, apomorphine hydrochloride]	–	91.2%
C[C@H](NC(=O)Cc1cc(F)cc(F)c1)C(=O)N[C@H](C(=O)OC(C)(C)C)c1ccccc1 [ONC0003591, dapt]	–	109.9%
O=C(O)C=C(CC(=O)O)C(=O)O [ONC0003760, cisaconiticacid]	–	93.51%
NCC(=O)N[C@@H](CCC(N)=O)C(=O)O [ONC0003608, s5amino22aminoacetamido5oxopentanoic acid] (H-Gly-Gln-OH)	–	104.9%
CCC(NC(C)C)C(O)c1ccc(O)c(O)c1 (centres unmarked) [ONC0004032, isoetharine mesylate]	–	90.3%
C/C(=N\NC(=O)C(NC(=O)c1ccccc1)c1n[nH]c(=O)c2ccccc12)c1cccc(Br)c1 (centres unmarked) [ONC0001013, ac55541]	–	89.73%
CCC(Cc1c(I)cc(I)c(N)c1I)C(=O)O (centres unmarked) [ONC0002312, iopanic acid]	–	101.4%
Cc1cc(Nc2ccc(NC(=O)c3ccc(Nc4ccnc5ccccc45)cc3)cc2)nc(N)n1 [ONC0005027, sgi1027]	–	80.8%
COC(=O)c1cc2c(C(F)(F)F)cc(-c3ccccc3)cc2n1O [ONC0003580, nhi2]	–	99.99%
CN1C2=CC(=O)/C(=N\NC(N)=O)C=C2CC1S(=O)(=O)O (centres unmarked) [ONC0004540, carbazochrome sodium sulfonate]	–	67.82%
COc1ccc(OC)c(C(O)C(C)N)c1 (centres unmarked) [ONC0000444, methoxamine hydrochloride]	–	88.05%
O=c1cc(N2CCOCC2)oc2c1ccc1ccccc12 [ONC0002057, nu 7026]	–	73.75%
C[C@@H]1[C@H](O)[C@@H](C)/C=C/C=C/C=C/C=C/C=C/C=C/C=C/[C@H](O[C@@H]2O[C@H](C)[C@@H](O)[C@H](N)[C@@H]2O)C[C@@H]2O[C@](O)(C[C@@H](O)C[C@@H](O)[C@H](O)CC[C@@H](O)C[C@@H](O)CC(=O)O[C@H]1C)C[C@H](O)[C@H]2C(=O)O [amphotericin B]	–	95.43%
CCOc1cncc(/C=C/CCNC)c1 [ONC0001241, tc2559 fumarate]	–	114.6%

One compound at a time (already shown). Values in the order: % viability (Madurella mycetomatis metabolic activity at 2µM (%)) | % viability
O=c1cc(N2CCOCC2)oc2c1ccc1ccccc12 [ONC0002057, nu 7026] as listed: – | 73.75%
CN1C2=CC(=O)/C(=N\NC(N)=O)C=C2CC1S(=O)(=O)O (centres unmarked) [ONC0004540, carbazochrome sodium sulfonate] as listed: – | 67.82%

Shown as labelled records: 2 of the compounds above
O=C(Cc1ccc(-c2ccc(OCCN3CCOCC3)cc2)cn1)NCc1ccccc1 [ONC0005091, kx2391]
  % viability: 85.19%
CC(C)(C(=O)c1cccnc1)c1cccnc1 [ONC0005447, metyrapone]
  % viability: 124.1%
